Data taken from publication PMC8956270.
Results are given in words; binding and its absence hold for the method and conditions named. In cells and extracts the contact can be indirect. Sequences can lack the tags named with a protein.

By UniProt entry, the sequences of proteins in these tests, tags left out.
UniProt P09429: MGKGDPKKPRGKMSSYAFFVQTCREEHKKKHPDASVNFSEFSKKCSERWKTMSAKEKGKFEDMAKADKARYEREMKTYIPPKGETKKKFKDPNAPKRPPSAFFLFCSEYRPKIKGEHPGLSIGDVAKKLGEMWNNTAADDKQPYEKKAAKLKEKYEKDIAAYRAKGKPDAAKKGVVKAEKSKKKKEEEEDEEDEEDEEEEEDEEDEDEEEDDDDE

Target: T1, HA-hLXR (human HA-LXRα) (human) (UniProt Q13133)
T1 sequence: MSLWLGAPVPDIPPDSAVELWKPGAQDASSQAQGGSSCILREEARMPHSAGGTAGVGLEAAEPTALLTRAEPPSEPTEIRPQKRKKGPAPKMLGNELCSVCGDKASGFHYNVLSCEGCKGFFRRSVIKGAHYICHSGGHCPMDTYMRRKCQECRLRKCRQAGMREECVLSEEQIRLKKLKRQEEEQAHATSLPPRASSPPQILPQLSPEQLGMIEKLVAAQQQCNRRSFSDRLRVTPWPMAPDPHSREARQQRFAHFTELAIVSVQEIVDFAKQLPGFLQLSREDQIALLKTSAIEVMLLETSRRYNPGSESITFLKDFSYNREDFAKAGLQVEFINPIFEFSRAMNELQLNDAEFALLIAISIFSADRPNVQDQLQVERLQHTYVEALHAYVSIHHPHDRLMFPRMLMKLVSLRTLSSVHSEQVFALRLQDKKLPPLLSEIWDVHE
Test: co-IP; Ad293 cells transfected with HA-hLXR and/or HMGB1 plasmids, treated with DMSO (vehicle) or T0901317; lysed in IP buffer (20 mM tris-HCl pH 8, 100 mM NaCl, 0.1% NP-40, 10% glycerol, 1 mM DTT); IP with HA-conjugated beads for 2 hours at 4°C; Western blot

binding: no binding
Substance: Myc-HMGB1 (from UniProt P09429 1-215)
